Measurements taken from PubChem BioAssay AID493014 (National Center for Advancing Translational Sciences (NCATS), 2011).
In all, about 340,000 compounds went through this assay and about 170 (0.05%) were called active. This list was built around the results that the source calls inconclusive (neither active nor inactive); the mix of calls is not that of the screen. The call rests on the fitted dose curve; in most records, active means well fitted inhibition curve with a large enough effect in the signal ratio, with a control signal flat (not every such curve was filed as active); inconclusive means small, poorly fitted or top-dose-only effect, or effect the other way, or a change in a side signal; inactive means flat fitted curve, though single readings scatter; the % refers to the signal ratio. A potency beside an inconclusive call is a rough fit, not a confirmed value.
Potency means the concentration at half of the fitted maximal effect.

Test: qHTS Assay to Find Inhibitors of Chronic Active B-Cell Receptor Signaling;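 on activity change, negative = inhibition: plate controls were basal doxycycline-induced cells for no effect and cells given 10 µM MG132 for full effect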
Details: ABC-DLBCL IkBa-CBG/CBR reporter, luminescence ratio (green luciferase fused to IkBa over red control in TMD8 lymphoma cells), 4 h; activity change, negative = inhibition: at 46.1 µM (top of the series) unless noted
Outline: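 Cell line TMD8 (human ABC DLBCL), stably expressing tet-inducible CBG68-IkBa fusion and CBR; IMDM/0.5% FBS; cpd up to 46 uM; dox induction, 4 h, 37C/5% CO2; dual luminescence; green/red ratio; MG132 control.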
In the case of `CC(Sc1nc2cc([N+](=O)[O-])ccc2n1-c1cccc(C(F)(F)F)c1)C(=O)NC(N)=O` (centres undefined), the “activity change, negative = inhibition” value is reported as inactive: 1.21%.
With `Cc1ccc(S(=O)(=O)N2CCN(C(=O)c3ccccc3OCc3c(C)noc3C)CC2)cc1C` the activity change, negative = inhibition was inconclusive: 4.56%.
In the case of `CC1CCN(C(=O)COC(=O)CNC(=O)C23CC4CC(CC(C4)C2)C3)CC1`, the “activity change, negative = inhibition” value is reported as inactive: 1.14%.
For `COc1ccc(NC(=S)NNc2ccc([N+](=O)[O-])cc2S(=O)(=O)Nc2ccc(C)cc2C)cc1`, the activity change, negative = inhibition was inconclusive: 8.51%.
For `CCN(CC)CCN(Cc1cc2cccc(C)c2[nH]c1=O)C(=S)Nc1ccccc1`, the “activity change, negative = inhibition” value was inactive: 8.86%.
For `Cc1cc(S(=O)(=O)Nc2ccc(C(=O)N3CCN(C(=O)c4ccco4)CC3)cc2)ccc1F`, the Potency was inconclusive: 3.66 µM [falling, single point].
With `Cn1c(CC(=O)NNC(=O)c2ccc(Cl)nc2)nc2ccccc21` the activity change, negative = inhibition was inconclusive: 3.52%.
In the case of `COc1ccc2c(c1)CC/C(=C\Nc1ccc3c(c1)OCO3)C2=O`, the Potency is reported as inconclusive: 20.6 µM [falling, single point].
For `COc1ccccc1NS(=O)(=O)c1ccc2c(c1)NC(=O)C(C)S2` (centres undefined), the activity change, negative = inhibition was inconclusive: -4.28%.
With `CC(=O)NCC(=O)OCC(=O)Nc1nc(-c2ccccc2)cs1` the activity change, negative = inhibition was inconclusive: -9.89%.
In the case of `CCCN(CC(=O)Nc1cc(Cl)ccc1Cl)C(=O)/C=C/c1ccco1`, the activity change, negative = inhibition is reported as inconclusive: -20.9%.
With `COC(=O)c1cc(OC)c(OC)cc1NC(=O)c1cc(C(C)(C)C)oc1C` the activity change, negative = inhibition was inconclusive: 0.149%.
For `CC(C)N(C(=O)c1nn(C)c2c1CSc1ccccc1-2)C1CCCCC1`, the “activity change, negative = inhibition” value was inactive: 14.4%.
In the case of `O=S(=O)(NC1c2cccc3cccc(c23)C1N1CCNCC1)c1ccc(Cl)cc1` (centres undefined), the Potency is reported as inconclusive: 14.1 µM [falling, single point].
With `C/C(=N\N=C(/N)c1nonc1N)c1ccc2c(c1)OCO2` the Potency was inconclusive: 25.1 µM [falling, single point].
For `CCOc1c(Br)cc(/C=N\NC(=O)c2ccccc2)cc1OC`, the activity change, negative = inhibition was inconclusive: -12.3%.
In the case of `C/C(=N\NC(=S)NCc1ccccc1)c1cccs1`, the Potency is reported as inconclusive: 4.47 µM [cytotoxic, single point].
In the case of `O=C(NC1CCCC1)c1cccc2c1C(=O)c1ccc(/C=C/c3ccccc3)cc1S2(=O)=O`, the Potency is reported as inconclusive: 0.103 µM [falling, full curve, poor fit].
With `COCc1cc(=O)[nH]c(SCC(=O)c2ccccc2)n1` the Potency was inconclusive: 35.5 µM [rising, single point].
With `CC1CCC2(CC1)NC(=O)N(Cc1cccc(C(F)(F)F)c1)C2=O` (centres undefined) the “activity change, negative = inhibition” value was inactive: -0.958%.
In the case of `CC1(C)Cc2c(cnn2-c2cccc(F)c2)C(NC(=O)CSc2ccccn2)C1` (centres undefined), the activity change, negative = inhibition is reported as inconclusive: -0.106%.
With `CCCOC(=O)c1[nH]c2c(c1C)C(=O)CC(c1cccs1)C2` (centres undefined) the activity change, negative = inhibition was inconclusive: 5.44%.
For `CCc1cnc2c(c1SCC(=O)NCc1ccc(C)cc1)c(=O)n(C)c(=O)n2C`, the Potency was inconclusive: 0.126 µM [falling, full curve, poor fit].
In the case of `CCc1ccc(NC(=O)CCn2ccnc2C)cc1`, the activity change, negative = inhibition is reported as inconclusive: 12.3%.
In the case of `COc1cc(C2NC(=O)NC(C)=C2C(=O)OC(C)(C)C)ccc1OCC(N)=O` (centres undefined), the “activity change, negative = inhibition” value is reported as inactive: -14.3%.
In the case of `O=c1c2ccccc2nnn1CSc1nnnn1-c1ccc(O)cc1`, the Potency is reported as inconclusive: 20 µM [falling, single point].
In the case of `C/C(=N\NC(=O)c1c(Cl)cnn1C)c1cccc(NC(=O)COc2ccccc2)c1`, the “activity change, negative = inhibition” value is reported as inactive: -2.87%.
In the case of `Cc1ccc(-c2nc(N3CCN(C)CC3)c3ccccc3n2)cc1`, the activity change, negative = inhibition is reported as inconclusive: 0.784%.
With `CCC12CN3CCN(CC(C3)/C1=N\NC(=O)c1ccc(Cl)cc1)C2` the Potency was inconclusive: 11.2 µM [falling, partial curve].
In the case of `O=C(COc1ccc(Cl)cc1)Nc1ccccc1C(=O)NCc1cccnc1`, the Potency is reported as inconclusive: 10 µM [falling, partial curve, poor fit].
In the case of `O=C(COC(=O)c1cc(Cl)ccc1O)NNC(=O)c1ccccc1F`, the “activity change, negative = inhibition” value is reported as inactive: 0.0045%.
For `Cc1c2c(n3c(nc4ccccc43)c1C#N)N(CCN(C)C)CC2`, the Potency was inconclusive: 12.6 µM [activator, single point].
For `O=C1CSC(c2ccc(F)cc2)N1c1nc2ccccc2s1` (centres undefined), the activity change, negative = inhibition was inconclusive: 6.12%.
For `CC(C)NC(=O)CCCc1c[nH]c2ccccc12`, the Potency was inconclusive: 35.5 µM [falling, single point].
With `CCC(CC)C(=O)Nc1cccc(-c2nc3ccccc3o2)c1` the Potency was inconclusive: 2.59 µM [rising, partial curve].
In the case of `COCCCNC(=O)c1ccc(S(=O)(=O)c2ccc(Cl)cc2)c(NC(C)=O)c1`, the activity change, negative = inhibition is reported as inconclusive: 2.73%.
In the case of `COc1cccc(CNC(=O)CCCn2ccc3cc(S(=O)(=O)N4CCCC4)ccc32)c1`, the Potency is reported as inconclusive: 22.4 µM [falling, single point].
For `COc1ccc(S(=O)(=O)N(CC(=O)N/N=C/c2cccs2)c2cc(C)cc(C)c2)cc1OC`, the activity change, negative = inhibition was inconclusive: 6.13%.
For `Oc1cc2ccccc2cc1-c1n[nH]c(=S)n1Cc1ccco1`, the “activity change, negative = inhibition” value was inactive: 8.32%.
For `Cc1[nH]n(-c2cccc3ccccc23)c(=O)c1/C=N/NC(=O)c1cccc([N+](=O)[O-])c1`, the activity change, negative = inhibition was inconclusive: -14.8%.
For `Cc1ccc(S(=O)(=O)N2CCCC2CNC(=O)c2ccccc2)cc1` (centres undefined), the activity change, negative = inhibition was inconclusive: 9.46%.
In the case of `O=C(CN1CCN(c2ccccc2)CC1)Nc1scc2c1c(=O)oc1ccccc12`, the activity change, negative = inhibition is reported as inconclusive: 17.1%.
For `CC(C)CCNc1nc(N)c([N+](=O)[O-])c(N2CCCCCC2)n1`, the “activity change, negative = inhibition” value was inactive: -7.59%.
For `CC(=O)NCCOC(=O)Nc1ccncc1`, the activity change, negative = inhibition was inconclusive: -2.64%.
For `N#Cc1ccsc1NC(=O)C1CCN(S(=O)(=O)c2cccs2)CC1`, the activity change, negative = inhibition was inconclusive: -8.63%.
In the case of `Cc1ccc([N+](=O)[O-])cc1N=Cc1ccc(Br)s1`, the Potency is reported as inconclusive: 14.1 µM [falling, partial curve, poor fit].
With `CC(=O)C1=C(O)C(=O)N(CCCO)C1c1ccccc1` (centres undefined) the activity change, negative = inhibition was inconclusive: 10.3%.
With `CCN(CC)c1ccc(/C=C(\C#N)C(=O)c2ccc(Br)cc2)cc1` the “activity change, negative = inhibition” value was inactive: -0.922%.
For `C[C@]12c3[nH]c4ccc(Cl)cc4c3CCN1C(=O)[C@@H](CC(=O)NCc1ccco1)C[C@@H]2C(=O)N1CCOCC1`, the “activity change, negative = inhibition” value was inactive: -6.97%.
For `CCOC(=O)N1CCN(c2ncnc3c2cnn3-c2ccc(Cl)cc2)CC1`, the activity change, negative = inhibition was inconclusive: -1.14%.
For `CNC(=O)c1cc(NC(=O)CCn2nc(-c3ccccc3)c3ccccc3c2=O)ccc1OC`, the Potency was inconclusive: 35.5 µM [falling, single point].
For `COc1ccc2cc3cc(C(=O)N(C)C4CCCCC4)oc3nc2c1`, the activity change, negative = inhibition was inconclusive: 12.3%.
For `COc1ccc(N2CCN(C(=O)CNS(=O)(=O)c3ccc(C)cc3)CC2)cc1`, the activity change, negative = inhibition was inconclusive: 13.2%.
In the case of `Cc1cc(C)cc(OCCNC(=O)CCc2ccccc2)c1`, the activity change, negative = inhibition is reported as inconclusive: 3.76%.
With `COc1ccc2c(c1)c(=O)oc1c(C)c(OCc3cc(C(=O)O)oc3C)ccc12` the activity change, negative = inhibition was inconclusive: 22.1%.
With `COc1ccc(S(=O)(=O)N2CCN(CC(=O)c3ccc(O)c(O)c3)CC2)cc1` the activity change, negative = inhibition was inconclusive: -4.06%.
For `CCN(CC)C(=O)c1cn(-c2ccccc2)nc1-c1ccc2c(c1)OCCO2`, the activity change, negative = inhibition was inconclusive: -15.3%.
In the case of `CN(C)CCOC(=O)C1(c2ccccc2)CCOCC1`, the activity change, negative = inhibition is reported as inconclusive: 4.26%.
In the case of `Cc1ccc2oc(C(=O)NCc3ncc(C)[nH]3)c(C)c2c1`, the “activity change, negative = inhibition” value is reported as inactive: 3.28%.
For `Cc1ccc(-c2csc3ncn(CC(=O)O)c(=O)c23)cc1C`, the “activity change, negative = inhibition” value was inactive: 0.28%.
In the case of `O=C(CSC1=NS(=O)(=O)c2cc(Cl)ccc2N1)Nc1cccc(F)c1`, the Potency is reported as inconclusive: 7.31 µM [falling, partial curve, poor fit].
In the case of `N=C1SC(c2ccccc2)C(=O)N1c1ncc(Cc2ccccc2)s1` (centres undefined), the “activity change, negative = inhibition” value is reported as inactive: 3.39%.
In the case of `Cc1ccc(NC(=O)Cn2nnc(-c3ccccc3)n2)c(C)c1`, the “activity change, negative = inhibition” value is reported as inactive: 3.77%.
With `CC(C)NC(=O)Nc1cccc2c1O[C@H](CN(C)C(=O)Nc1ccccc1)[C@@H](C)CN([C@H](C)CO)C2=O` the activity change, negative = inhibition was inconclusive: -0.748%.
In the case of `Cc1cc(=O)oc2c(C(=O)/C=C/c3ccccc3)c(O)ccc12`, the “activity change, negative = inhibition” value is reported as inactive: 13.4%.
For `Cc1nn(-c2ccccc2)c(/N=C/c2ccccc2O)c1-c1ccccc1`, the Potency was inconclusive: 6.51 µM [falling, single point].
In the case of `Nc1nc(-c2ccccc2)c(N=Nc2ccc(Cl)cc2)s1`, the Potency is reported as inconclusive: 0.92 µM [rising, partial curve, poor fit].
For `COc1ccc(Nc2c(-c3ccc(OC)cc3)nc3cnccn23)cc1`, the “activity change, negative = inhibition” value was inactive: -1.31%.
With `COC(=O)Cn1c(=NC(=O)c2ccc([N+](=O)[O-])s2)sc2cc(Br)ccc21` the Potency was inconclusive: 23.1 µM [falling, partial curve].
In the case of `COc1ccccc1N(C(=O)CCl)c1cn(C(C)=O)c2ccccc12`, the Potency is reported as inconclusive: 17.8 µM [falling, single point].
With `O=C1Nc2ccccc2/C1=C/c1ccccc1Cl` the Potency was inconclusive: 22.4 µM [falling, single point].
In the case of `COc1ccc(COC(=O)c2ccc(N3CCCC3=O)cc2)cc1F`, the activity change, negative = inhibition is reported as inconclusive: -10.3%.
In the case of `CCOC(=O)CC(N)c1ccc(OC)cc1` (centres undefined), the “activity change, negative = inhibition” value is reported as inactive: 8.25%.
For `O=C(NCc1ccco1)c1cc2sccc2n1Cc1ccccc1`, the activity change, negative = inhibition was inconclusive: -72.7%.
With `COCC(=O)N[C@@H]1c2ccccc2CC[C@@H]1OCc1ccccc1` the “activity change, negative = inhibition” value was inactive: 0.762%.
With `N=c1c2c(-c3ccccc3)c(-c3ccccc3)n(Cc3ccco3)c2ncn1CCN1CCOCC1` the activity change, negative = inhibition was inconclusive: 3.17%.
In the case of `O=c1[nH]c(N/N=C\c2ccc3c(c2)OCO3)nc2ccccc12`, the Potency is reported as inconclusive: 35.5 µM [rising, single point].
For `CCNC(=S)Nc1cc(OC)c(NC(=O)c2ccco2)cc1OC`, the activity change, negative = inhibition was inconclusive: 9.7%.
In the case of `O=C(O)c1ccc(NS(=O)(=O)c2ccc(N3CCCC3)c([N+](=O)[O-])c2)cc1`, the activity change, negative = inhibition is reported as inconclusive: -0.358%.
